The values below come from patent publication US20090240037A1 (IMMUNOMEDICS, published 2009).

The chains behind the UniProt entries cited, without tags or fusion partners. Residues count along the entry.
UniProt P06731, residues 35-685: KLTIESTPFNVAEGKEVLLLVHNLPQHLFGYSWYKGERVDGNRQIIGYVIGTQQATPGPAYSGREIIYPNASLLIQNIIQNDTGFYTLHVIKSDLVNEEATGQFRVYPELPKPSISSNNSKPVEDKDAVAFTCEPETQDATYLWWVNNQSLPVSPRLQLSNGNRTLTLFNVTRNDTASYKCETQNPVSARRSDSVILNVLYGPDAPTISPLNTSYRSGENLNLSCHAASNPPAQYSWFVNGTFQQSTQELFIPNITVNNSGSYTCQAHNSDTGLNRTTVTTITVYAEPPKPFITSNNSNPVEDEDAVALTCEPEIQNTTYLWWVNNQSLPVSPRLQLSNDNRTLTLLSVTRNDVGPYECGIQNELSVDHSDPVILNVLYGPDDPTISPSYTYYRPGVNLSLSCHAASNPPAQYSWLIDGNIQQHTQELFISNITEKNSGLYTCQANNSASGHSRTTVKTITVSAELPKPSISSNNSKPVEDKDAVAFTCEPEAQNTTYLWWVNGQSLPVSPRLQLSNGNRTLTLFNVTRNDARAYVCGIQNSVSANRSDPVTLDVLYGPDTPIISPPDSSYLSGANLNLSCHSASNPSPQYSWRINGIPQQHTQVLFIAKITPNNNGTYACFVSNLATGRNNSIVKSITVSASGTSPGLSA

Results are given in words; binding and its absence hold for the method and conditions named. Some entries that bind do so weakly or less than the wild type.

The target of the assay is soluble CEA (Scripps Laboratories) (UniProt P06731). The assay is described as follows: BIAcore; inferred by the filing from binding of W12 (hMN14-specific anti-idiotype) to chip-bound BS1.5H.

B1: BS1.5H (h679 x hMN14 bispecific diabody) (bispecific antibody)
chain 1: MEVQLVESGGDLVKPGGSLKLSCAASGFTFSIYTMSWLRQTPGKGLEWVATLSGDGDDIYYPDSVKGRFTISRDNAKNSLYLQMNSLRAEDTALYYCARVRLGDWDFDVWGQGTTVSVSSGGGGSDIQLTQSPSSLSASVGDRVTITCKASQDVGTSVAWYQQKPGKAPKLLIYWTSTRHTGVPSRFSGSGSGTDFTFTISSLQPEDIATYYCQQYSLYRSFGQGTKVEIKRLEHHHHHH
chain 2: MEVQLVESGGGVVQPGRSLRLSCSASGFDFTTYWMSWVRQAPGKGLEWIGEIHPDSSTINYAPSLKDRFTISRDNAKNTLFLQMDSLRPEDTGVYFCASLYFGFPWFAYWGQGTPVTVSGGGGSDIVMTQSPSSLAVSPGERVTLTCKSSQSLFNSRTRKNYLGWYQQKPGQSPKLLIYWASTRESGVPDRFSGSGSGTDFTLTINSLQAEDVAVYYCTQVYYLCTFGAGTKLELKRLEHHHHHH
For B1, the binding result was “binds”.
